Data published in patent US8323911B2, “High throughput assay for discovering new inhibitors of the GIRK1/4 channel” (University of South Carolina, priority 2010, dated 2012).

Assay: Interference of test compounds with DiBAC4(3) fluorescence in the absence of cells
Conditions: cell-free conditions

CCCCc1oc2ccccc2c1C(=O)c1cc(I)c(OCCN(CC)CC)c(I)c1 [amiodarone]
concentration at which the compound interferes with / reduces the DiBAC4(3) fluorescence: greater than or equal to 1 μM
concentration at which the compound interferes with / reduces the DiBAC4(3) fluorescence (listed as Amiodarone): ≥ 1 µM
